{"sequences": {"note": "By UniProt entry, the sequences of proteins in these tests, tags left out.", "UniProt A5PLL7": "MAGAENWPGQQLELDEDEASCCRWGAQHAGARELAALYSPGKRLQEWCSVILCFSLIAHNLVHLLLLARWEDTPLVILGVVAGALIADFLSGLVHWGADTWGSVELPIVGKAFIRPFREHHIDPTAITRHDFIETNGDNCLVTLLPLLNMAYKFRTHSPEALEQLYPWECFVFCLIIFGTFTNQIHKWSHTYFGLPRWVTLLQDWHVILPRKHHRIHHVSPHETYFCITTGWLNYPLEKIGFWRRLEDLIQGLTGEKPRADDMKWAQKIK"}, "source": "paper doi:10.1101/827071", "binders": {"B1": {"name": "SPTLC2 (protein, UniProt O15270 1-562)", "chain": "MRPEPGGCCCRRTVRANGCVANGEVRNGYVRSSAAAAAAAAAGQIHHVTQNGGLYKRPFNEAFEETPMLVAVLTYVGYGVLTLFGYLRDFLRYWRIEKCHHATEREEQKDFVSLYQDFENFYTRNLYMRIRDNWNRPICSVPGARVDIMERQSHDYNWSFKYTGNIIKGVINMGSYNYLGFARNTGSCQEAAAKVLEEYGAGVCSTRQEIGNLDKHEELEELVARFLGVEAAMAYGMGFATNSMNIPALVGKGCLILSDELNHASLVLGARLSGATIRIFKHNNMQSLEKLLKDAIVYGQPRTRRPWKKILILVEGIYSMEGSIVRLPEVIALKKKYKAYLYLDEAHSIGALGPTGRGVVEYFGLDPEDVDVMMGTFTKSFGASGGYIGGKKELIDYLRTHSHSAVYATSLSPPVVEQIITSMKCIMGQDGTSLGKECVQQLAENTRYFRRRLKEMGFIIYGNEDSPVVPLMLYMPAKIGAFGREMLKRNIGVVVVGFPATPIIESRARFCLSAAHTKEILDTALKEIDEVGDLLQLKYSRHRLVPLLDRPFDETTYEETED"}}, "molecular_target": "TMEM189-GFP (human) (UniProt A5PLL7)", "experiment": "affinity purification with mass spectrometry", "note": "These are yes or no findings as the source states them, for the method shown. Binding seen in cells or lysates may run through a third protein. Here binding means that the protein was enriched with, or labelled near, the bait; the list need not be complete."}
{"binder": "B1", "values": [{"measurement": "binding", "value": "binds"}]}
